By UniProt entry, the sequences of proteins in these tests, tags left out.
UniProt Q0JBA9, entry or part of it: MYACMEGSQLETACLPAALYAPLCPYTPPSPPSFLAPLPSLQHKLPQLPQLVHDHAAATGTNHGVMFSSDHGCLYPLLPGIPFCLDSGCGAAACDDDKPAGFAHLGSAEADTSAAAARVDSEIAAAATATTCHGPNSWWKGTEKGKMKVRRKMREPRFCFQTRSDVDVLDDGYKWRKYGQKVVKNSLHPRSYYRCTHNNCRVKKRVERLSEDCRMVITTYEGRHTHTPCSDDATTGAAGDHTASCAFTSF

Some of the results follow.
These sequences were tested against OsWRKY34 (Oryza sativa, UniProt Q0JBA9 1-250) (assay: protein-binding microarray (RPBM); PBS, 2% BSA, 51.3 ng/ul salmon testes DNA, 50 uM zinc acetate, 200 nM TF, 25 C, 1 h; high values mean tight binding). Settings: protein: recombinant; tags: N-terminal polyhistidine and DsRed monomer fusion (pET32a); label: CyDye5-dUTP incorporated in the synthesized complementary strand; 3' TTTTT single-stranded linker to array surface; dsDNA, one strand shown.
How it was run: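 In PBS with 2% BSA, salmon testes DNA and 50 µM zinc acetate, 200 nM protein was incubated on a custom Agilent array at 25 °C for 1 h and then washed off. The array had been made double-stranded by primer extension with Cy5-dUTP and blocked with 2% BSA. The proteins were transcription factors fused N-terminally to polyhistidine and DsRed, expressed in E. coli BL21-CodonPlus and purified on Ni–NTA. The binding signal is per-feature fluorescence intensity (arbitrary units) from an Axon 4000B scanner.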
For “GACTTTTTTTTAAATTTTTTTTCGCTATATTTTTTGACGGCGGAGTCACCTAGTGCAG”, the binding signal was 8320 fluorescence intensity (a.u.). With “GATTGTGATGGTCCGTTTTCACTTTTTTAGTCATCTACAACGGAGTCACCTAGTGCAG” the binding signal was 10900 fluorescence intensity (a.u.). In the case of “GCCTCTCAGATATGTTCTTTGTTTGATTTATTTTTCTAATCGGAGTCACCTAGTGCAG”, the binding signal was 8030 fluorescence intensity (a.u.). For “TCTCCCCATCCATCCTCACCCGCGCTGCCCATCACTCGCCCGGAGTCACCTAGTGCAG”, the binding signal was 8240 fluorescence intensity (a.u.). “AAATACCACTACTATTCGTCGTATCGGCTACATGCCACTGCGGAGTCACCTAGTGCAG” was tested, and the binding signal was 8160 fluorescence intensity (a.u.). For “TTATATAAGCACGCTGCCTTCGCCATCTCCATTTCCACAACGGAGTCACCTAGTGCAG”, the binding signal was 8840 fluorescence intensity (a.u.). In the case of “GTCTCACTCTCCCAATCCGCCTCGGCCCGAGCGCGCGCGCCGGAGTCACCTAGTGCAG”, the binding signal was 9530 fluorescence intensity (a.u.). In the case of “GGTCAGGATATCTGGTTTTGTAGTTTAAGGCCACGGATTACGGAGTCACCTAGTGCAG”, the binding signal was 9010 fluorescence intensity (a.u.). In the case of “ATCCTCGGTAACTCTTCTTCGCGGCTATCGTGTTGGTCTCCGGAGTCACCTAGTGCAG”, the binding signal was 11200 fluorescence intensity (a.u.). In the case of “CCTGATCCTGCTGTATTAAGACATACGAGGCAAAGCTTTTCGGAGTCACCTAGTGCAG”, the binding signal was 9670 fluorescence intensity (a.u.). For “GTTTTGACTTTGGTCAAAGTCAAACTAATTCAAGTTAGACCGGAGTCACCTAGTGCAG”, the binding signal was 17600 fluorescence intensity (a.u.). “GACCAGCGAACTGCAAGCAATCCCAGCCATTCTTTCATTCCGGAGTCACCTAGTGCAG” was tested, and the binding signal was 10400 fluorescence intensity (a.u.). With “ATATGTATTAGTGTGTATGTGTTAAGGGGTATTTCTGTCTCGGAGTCACCTAGTGCAG” the binding signal was 10700 fluorescence intensity (a.u.). In the case of “GTTGTTCTTATGGTCTTGCTTTGTTCCTTTCCATTTGGTCCGGAGTCACCTAGTGCAG”, the binding signal was 13000 fluorescence intensity (a.u.). For “GAGGGAGGGAGGGAGGGAGGGCGTGTAGCGTAGTTGGTGTCGGAGTCACCTAGTGCAG”, the binding signal was 18800 fluorescence intensity (a.u.). In the case of “TCACGGCCCACTTCTCTTCGTCGGCCCAGTATCGTCCCTTCGGAGTCACCTAGTGCAG”, the binding signal was 8760 fluorescence intensity (a.u.). For “AAAATACCGACATAATATTTGGATACACATCTATCTAGATCGGAGTCACCTAGTGCAG”, the binding signal was 8800 fluorescence intensity (a.u.). “GGGCTGGTTTGGCTTGGCTGTTACAAAGACAAAGAATGACCGGAGTCACCTAGTGCAG” was tested, and the binding signal was 16800 fluorescence intensity (a.u.). “GATACATAGAGTCATGCACCTACGACTCCACCACCACAACCGGAGTCACCTAGTGCAG” was tested, and the binding signal was 11600 fluorescence intensity (a.u.). With “GGTGGGAGGGATCTAGGAAGGCTAGGGCAAGCGTCGATCTCGGAGTCACCTAGTGCAG” the binding signal was 8110 fluorescence intensity (a.u.). In the case of “TGACCTCCGTTTTAGTCCACACTCTCTCGCAGCGGCGGAGCGGAGTCACCTAGTGCAG”, the binding signal was 9080 fluorescence intensity (a.u.). For “GAGCACCACCTCCATAAACCCGGTCCACCCTGAACTCCACCGGAGTCACCTAGTGCAG”, the binding signal was 9750 fluorescence intensity (a.u.). In the case of “CCTGTATTCGGCACCCATTTTCCTAACATTTCTCTCGTTTCGGAGTCACCTAGTGCAG”, the binding signal was 8970 fluorescence intensity (a.u.). In the case of “CATGAGATGAGAGGCCTTTGATTGTTCAGTCATATTATTTCGGAGTCACCTAGTGCAG”, the binding signal was 9510 fluorescence intensity (a.u.). For “ATTCTGTTTTCTACTATTCGCTAGTATACTGCTACTAGTTCGGAGTCACCTAGTGCAG”, the binding signal was 11500 fluorescence intensity (a.u.). For “GGATTCGGAGGCGGGTGGGAGTGGGAGAGTGAGAGGGGCTCGGAGTCACCTAGTGCAG”, the binding signal was 16200 fluorescence intensity (a.u.). For “CATACAGAGCTTGCCGCTGCCCATCACGTCGACCTACGCTCGGAGTCACCTAGTGCAG”, the binding signal was 8750 fluorescence intensity (a.u.). With “GTTTCTGTCCATTGAGATATATTAGGTGATATTTTTGTGTCGGAGTCACCTAGTGCAG” the binding signal was 8110 fluorescence intensity (a.u.). In the case of “ATTTGGTAGGGCTGGTTGGAGTACTTTTCATTGGGTGCCTCGGAGTCACCTAGTGCAG”, the binding signal was 11900 fluorescence intensity (a.u.). “GCCTGGTCCTGTCACAAGTTTTGTTTGCTGAATCTTATTACGGAGTCACCTAGTGCAG” was tested, and the binding signal was 12500 fluorescence intensity (a.u.). “CGAATAGGCTCGTGTTGCTTCCTTCTCTCTCACCTGCGCACGGAGTCACCTAGTGCAG” was tested, and the binding signal was 8120 fluorescence intensity (a.u.). With “CACCCAAGACACCAGCACCCCGCGCGGCCCAGCAAGTTAACGGAGTCACCTAGTGCAG” the binding signal was 9050 fluorescence intensity (a.u.). In the case of “GCCCATCACACAGCATCTGTAACTGTGCAGGTTTTAATTTCGGAGTCACCTAGTGCAG”, the binding signal was 9370 fluorescence intensity (a.u.). For “ACTGTACAAATTTTTCACCTACCTCAACTTCTCATTCAATCGGAGTCACCTAGTGCAG”, the binding signal was 8350 fluorescence intensity (a.u.). For “TCTCTGATCATCTTGGCGTTGATACCACTCATCGGCGTCACGGAGTCACCTAGTGCAG”, the binding signal was 10500 fluorescence intensity (a.u.). With “AGATAAGGCTCATACAGGCATACATCACACTACTATTTGACGGAGTCACCTAGTGCAG” the binding signal was 8210 fluorescence intensity (a.u.). For “GTATGACTTCTCCGTTTTTATATTTGCACTAATTTTTTAACGGAGTCACCTAGTGCAG”, the binding signal was 11200 fluorescence intensity (a.u.). With “ATCTGTCATCTCGTTCTTCTCACGTCAGGAATCTCCAGAGCGGAGTCACCTAGTGCAG” the binding signal was 9400 fluorescence intensity (a.u.). With “GCTTTCTGTGGTGCATTCTATATTTTTTATATATTATTATCGGAGTCACCTAGTGCAG” the binding signal was 16400 fluorescence intensity (a.u.). In the case of “TCCCACAGATTATTTGCTTGCTACTTGGGGTTGTTATTTTCGGAGTCACCTAGTGCAG”, the binding signal was 8750 fluorescence intensity (a.u.). With “TAGCTCTCGTCTCACCTAACCTAACATCGCCAGGTTTTTCCGGAGTCACCTAGTGCAG” the binding signal was 9610 fluorescence intensity (a.u.). With “CGCAGGGGTGGCAGCCATCTCTACATCCATCAGTTCGCGTCGGAGTCACCTAGTGCAG” the binding signal was 8430 fluorescence intensity (a.u.).
